No constants are given. Whether binding was seen depends on the method and setting. Some results given as binding are weak or reduced against the parent protein; the word gives no strength.

The chains behind the UniProt entries cited, without tags or fusion partners. Where a name states a change or a piece, a line headed by the entry shows the natural chain unless it says otherwise.
UniProt Q9BQ15: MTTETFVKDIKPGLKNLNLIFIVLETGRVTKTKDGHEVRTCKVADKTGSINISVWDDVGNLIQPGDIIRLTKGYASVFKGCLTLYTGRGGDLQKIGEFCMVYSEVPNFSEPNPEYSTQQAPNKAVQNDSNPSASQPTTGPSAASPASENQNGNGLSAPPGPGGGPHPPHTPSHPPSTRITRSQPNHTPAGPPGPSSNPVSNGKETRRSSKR
UniProt O15527: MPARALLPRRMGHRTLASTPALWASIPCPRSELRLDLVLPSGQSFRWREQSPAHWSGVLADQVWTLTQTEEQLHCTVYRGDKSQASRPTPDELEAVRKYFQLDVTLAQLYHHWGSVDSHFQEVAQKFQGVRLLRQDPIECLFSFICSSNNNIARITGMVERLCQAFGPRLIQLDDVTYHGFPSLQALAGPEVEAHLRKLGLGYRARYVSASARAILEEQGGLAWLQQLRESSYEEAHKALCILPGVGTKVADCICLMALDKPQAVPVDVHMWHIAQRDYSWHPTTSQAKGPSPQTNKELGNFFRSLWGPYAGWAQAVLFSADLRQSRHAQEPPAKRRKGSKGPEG

The test concerns the target recombinant C41S hSSB1 (human) (UniProt Q9BQ15). As to the kind of experiment: pull-down; mutated hSSB1 immobilized on cyanogen bromide-activated Sepharose 4B; purified recombinant proteins; both purified.

As for “GST-OGG1 (human 8-oxoguanine glycosylase 1) (from UniProt O15527 1-345) (enzyme)”, the binding result is recorded as “binds”.

Values taken from publication PMC4897654.
